Reference: article PMC7940485
No constants are given. Whether binding was seen depends on the method and setting. In cells and extracts the contact can be indirect. These calls come from enrichment with a bait or labelling near it, and not all partners need be listed. For part of these data: No binding means not detected with the bait. Sequences can lack the tags named with a protein.

The chains behind the UniProt entries cited, without tags or fusion partners.
UniProt Q5TA45: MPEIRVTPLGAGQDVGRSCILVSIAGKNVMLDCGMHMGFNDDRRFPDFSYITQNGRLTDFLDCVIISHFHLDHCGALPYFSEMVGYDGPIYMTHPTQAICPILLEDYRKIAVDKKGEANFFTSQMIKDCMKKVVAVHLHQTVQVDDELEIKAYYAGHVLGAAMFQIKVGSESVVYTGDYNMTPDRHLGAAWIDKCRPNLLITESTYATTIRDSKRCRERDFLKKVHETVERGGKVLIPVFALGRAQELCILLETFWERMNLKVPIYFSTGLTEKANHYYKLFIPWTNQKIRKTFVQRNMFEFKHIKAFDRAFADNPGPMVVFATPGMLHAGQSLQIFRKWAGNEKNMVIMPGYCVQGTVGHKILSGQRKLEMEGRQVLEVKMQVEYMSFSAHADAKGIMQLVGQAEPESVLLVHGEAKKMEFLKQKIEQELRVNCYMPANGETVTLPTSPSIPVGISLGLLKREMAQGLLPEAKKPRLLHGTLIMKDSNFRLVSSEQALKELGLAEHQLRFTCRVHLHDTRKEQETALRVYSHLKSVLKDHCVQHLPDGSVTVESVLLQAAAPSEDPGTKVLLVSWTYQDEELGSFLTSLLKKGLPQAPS
UniProt Q9NV88: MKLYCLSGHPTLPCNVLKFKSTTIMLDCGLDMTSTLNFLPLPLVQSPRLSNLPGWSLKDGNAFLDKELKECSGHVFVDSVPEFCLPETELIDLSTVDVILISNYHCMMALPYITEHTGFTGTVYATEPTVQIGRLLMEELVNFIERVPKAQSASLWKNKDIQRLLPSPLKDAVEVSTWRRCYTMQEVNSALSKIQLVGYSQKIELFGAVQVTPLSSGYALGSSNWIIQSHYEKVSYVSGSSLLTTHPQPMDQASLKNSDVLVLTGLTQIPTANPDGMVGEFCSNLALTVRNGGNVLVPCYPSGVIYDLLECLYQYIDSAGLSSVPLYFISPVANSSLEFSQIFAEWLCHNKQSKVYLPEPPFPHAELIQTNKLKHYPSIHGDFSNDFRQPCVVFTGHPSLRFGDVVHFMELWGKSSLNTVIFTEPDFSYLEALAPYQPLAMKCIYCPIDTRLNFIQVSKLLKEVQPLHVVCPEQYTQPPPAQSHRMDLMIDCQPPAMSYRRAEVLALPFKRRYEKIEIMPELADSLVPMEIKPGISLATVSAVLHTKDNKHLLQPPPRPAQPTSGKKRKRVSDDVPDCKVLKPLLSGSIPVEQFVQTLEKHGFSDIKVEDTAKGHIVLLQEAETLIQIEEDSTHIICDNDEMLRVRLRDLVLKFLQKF

T1: GFP-WDR73 full length (stably expressed in podocytes) (human) (UniProt Q6P4I2)
T1 sequence: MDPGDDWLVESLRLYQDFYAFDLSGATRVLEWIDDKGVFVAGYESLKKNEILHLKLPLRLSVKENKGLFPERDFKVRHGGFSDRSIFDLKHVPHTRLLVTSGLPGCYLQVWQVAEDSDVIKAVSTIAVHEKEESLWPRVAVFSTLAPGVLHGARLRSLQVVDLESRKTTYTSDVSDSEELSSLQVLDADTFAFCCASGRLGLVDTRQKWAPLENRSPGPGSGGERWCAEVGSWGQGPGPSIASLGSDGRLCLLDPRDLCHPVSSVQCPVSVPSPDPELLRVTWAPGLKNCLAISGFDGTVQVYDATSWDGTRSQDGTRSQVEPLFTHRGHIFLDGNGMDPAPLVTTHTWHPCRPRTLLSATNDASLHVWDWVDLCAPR

T2: GFP-WDR73 full length (stably expressed in podocytes) (human), Q6P4I2
T2 chain: T1 sequence

B1: TUBB4B, P68371 1-445 (protein)
chain: MREIVHLQAGQCGNQIGAKFWEVISDEHGIDPTGTYHGDSDLQLERINVYYNEATGGKYVPRAVLVDLEPGTMDSVRSGPFGQIFRPDNFVFGQSGAGNNWAKGHYTEGAELVDSVLDVVRKEAESCDCLQGFQLTHSLGGGTGSGMGTLLISKIREEYPDRIMNTFSVVPSPKVSDTVVEPYNATLSVHQLVENTDETYCIDNEALYDICFRTLKLTTPTYGDLNHLVSATMSGVTTCLRFPGQLNADLRKLAVNMVPFPRLHFFMPGFAPLTSRGSQQYRALTVPELTQQMFDAKNMMAACDPRHGRYLTVAAVFRGRMSMKEVDEQMLNVQNKNSSYFVEWIPNNVKTAVCDIPPRGLKMSATFIGNSTAIQELFKRISEQFTAMFRRKAFLHWYTGEGMDEMEFTEAESNMNDLVSEYQQYQDATAEEEGEFEEEAEEEVA

Experiments:
[1] = biological target: T1, GFP-WDR73 full length (stably expressed in podocytes) (human); experiment: affinity purification with mass spectrometry; proteomic analysis of GFP immunoprecipitates from a conditionally immortalised human podocyte cell line stably expressing GFP-WDR73 full length
[2] = biological target: T2, GFP-WDR73 full length (stably expressed …); experiment: as above; details: remark: other sources report otherwise

Molecule | binding [1] | binding [2]
Integrator complex subunit 11 (endogenous, podocytes) (from UniProt Q5TA45 1-600) | binds | –
Integrator complex subunit 9 (endogenous, podocytes) (from UniProt Q9NV88 1-658) | binds | –
B1 | – | no binding
